Entries after “also recorded” stand apart in the source; their conditions may differ. At least one structure is not confirmed: it was looked up by name or label, or the drawing left a doubt.
What was measured:
Format in all cases: cell-based, human
PE-MSC [1] = assay: Apoptosis assay for MSC (Annexin V, IncuCyte S3, Red Object Count), PE-MSC; details: 24 hours
Experimental: MSC isolation from adipose tissue: Abdominal fat tissue (3-5 g) obtained during C-section was cultured at 37° C./5% CO2 in Advanced MEM media supplemented with 5% platelet lysate (PLTmax, Mill Creek Life Sciences, Rochester, MN), which provides a robust growth medium. The third passage of cells was used for phenotype/function analysis. MSC were positive to CD90, CD44, and CD105, negative to CD34, CD31, and CD45 by Flow Cytometry (FlowSight™, Amnis, Seattle, WA), and were able to transdifferentiate into adipocytes, chondrocytes, and osteocytes. For studies in non-pregnant subjects, MSC were isolated from three healthy kidney donors at time of kidney donation.
Apoptosis was assessed by Annexin V reagent (Essen Bioscience) using the IncuCyte S3 Live-Cell Analysis System (Essen Bioscience).
The initial dose response experiments were performed to determine the optimal Dasatinib concentration using the apoptotic assay and IncuCyte S3 Live-Cell Analysis System (Essen Bioscience). Approximately 1×10^6 MSC (PE and NP) in passage #4, were treated with the senolytic drug, Dasatinib at concentrations of 1, 2, 5 and 10 μM (dissolved in 0.1% DMSO) for 24 hours. Three groups were analyzed: 1) cells incubated in media, 2) vehicle: cells treated with 0.1% DMSO, 3) cells treated with Dasatinib. […] Annexin V, added at the beginning of the treatment, labeled apoptotic cells yielding red fluorescence. […]

NP-MSC [2] = assay: Apoptosis assay for MSC (Annexin V, IncuCyte S3, Red Object Count), NP-MSC; details: 24 hours
[3] = system: PE-MSC co-cultured with GFP-expressing HUVEC; assay: HUVEC angiogenesis assay, co-culture with PE-MSC, total network length; details: PE-MSC pre-treated with 1 μM for 24 hours
[4] = system: NP-MSC co-cultured with GFP-expressing HUVEC; assay: HUVEC angiogenesis assay, co-culture with NP-MSC, total network length; details: NP-MSC pre-treated with 1 μM for 24 hours, co-culture 8 days, treated vs untreated
NP-MSC [5] = assay: Senescence-associated beta galactosidase (SABG) staining, NP-MSC; details: NP-MSC before vs after treatment, 1 μM 24 hours
PE-MSC [6] = assay: Gene expression of senescence markers and SASP components by qPCR, PE-MSC; details: PE-MSC after treatment, 1 μM 24 hours
NP-MSC [7] = assay: Gene expression of senescence markers and SASP components by qPCR, NP-MSC; details: NP-MSC after treatment, 1 μM 24 hours
[8] = 1 μM, compared to cells not treated with the drug

Cc1nc(Nc2ncc(C(=O)Nc3c(C)cccc3Cl)s2)cc(N2CCN(CCO)CC2)n1 [Dasatinib]
Apoptosis (apoptotic effect, Red Object Count) (PE-MSC [1]; [8]): induced significant apoptosis; also recorded: significant apoptotic effects | Dose response of apoptosis (PE-MSC [1]; 1, 2, 5 and 10 μM): prone to apoptosis when treated with lower concentrations; also recorded: sensitive to a lower concentration | Apoptosis (apoptotic effect, Red Object Count) (NP-MSC [2]; [8]): but not in NP-MSCs | Dose response of apoptosis (NP-MSC [2]; 1, 2, 5 and 10 μM): more sensitive to the apoptotic effects of the drug when treated with higher concentrations | Angiogenic potential (total network length of HUVEC) ([3]; co-culture 8 days, beginning on day 5, vs non-treated): significantly improved angiogenic potential; also recorded: significant improvement in angiogenesis | Angiogenic potential (total network length of HUVEC), first four days ([3]; first four days of co-culture): no significant difference | Angiogenic potential (total network length of HUVEC) [4]: no significant change; also recorded: no significant difference | SABG staining (NP-MSC [5]): No difference | IL-6 gene expression (PE-MSC [6]): significant decreases | IL-8 gene expression (PE-MSC [6]): modest decrease; also recorded: decreased | MCP-1 gene expression (PE-MSC [6]): significant decreases | PAI-1 gene expression (PE-MSC [6]): significant decreases | PAI-2 gene expression (PE-MSC [6]): increase; also recorded: Significantly increased | p16 gene expression (PE-MSC [6]): significant decreases | p21 gene expression (PE-MSC [6]): Significantly increased | IL-6 relative gene expression (NP-MSC [7]): significantly decreased | IL-8 relative gene expression (NP-MSC [7]): significantly decreased | MCP-1 relative gene expression (NP-MSC [7]): significantly decreased | PAI2 gene expression (NP-MSC [7]): increased | PAI-1 relative gene expression (NP-MSC [7]): significantly decreased | p16 gene expression (NP-MSC [7]): remained unchanged | p21 gene expression (NP-MSC [7]): increased

— US20240016804A1, “METHODS AND MATERIALS FOR ASSESSING AND TREATING HYPERTENSIVE DISORDERS” (Mayo Foundation for Medical Education and Research, priority 2019, published 2024)
